Measured values: patent US20090155249A1
Numbering of substitutions follows the chain as printed. These are yes or no findings as the source states them, for the method shown. Some entries that bind do so weakly or less than the wild type. Each block holds one binder with its values, some of them ahead of it.

The chains behind the UniProt entries cited, without tags or fusion partners. Residues count along the entry.
UniProt P05067, residues 672-713: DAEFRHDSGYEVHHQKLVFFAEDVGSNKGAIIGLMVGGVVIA

Tests used:
[1] = target: Amyloid Beta (antigen of the Amyloid Beta ELISA) (UniProt P05067); experiment: Amyloid Beta ELISA, conditioned medium from transient transfection
[2] = target: Amyloid Beta (antigen of the Amyloid Beta ELISA) (UniProt P05067); experiment: Amyloid Beta ELISA, antibody purified from stable NS0 cell lines
[3] = target: Amyloid Beta (antigen of the Amyloid Beta ELISA) (UniProt P05067); experiment: Amyloid Beta ELISA, purified antibodies, A405
[4] = target: Amyloid Beta (antigen of the Amyloid Beta ELISA) (UniProt P05067); experiment: Amyloid Beta ELISA, A405
[5] = target: amyloid plaques in brain sections of AD patients (human) (UniProt P05067); experiment: immunohistochemistry, paraffin sections of human brain pretreated with formic acid
[6] = target: Amyloid Beta (antigen of the Amyloid Beta ELISA) (UniProt P05067); experiment: Amyloid Beta ELISA, conditioned medium from transient transfection, A405
[7] = target: Amyloid Beta (antigen of the Amyloid Beta ELISA) (UniProt P05067); experiment: Amyloid Beta ELISA, purified antibodies

- binding [1]: binds
- binding [2]: binds
- binding [3]: binds
- binding [4]: binds
- binding [5]: binds
B1: chimeric antibody C2 ChVH AF/ChVK (antibody, V domains shown)
VH: EVQLVESGGGLVQPGGSLKLSCAASGFTFSSYGMSWVRQTPDKRLELVASINSNGGSTYYPDSVKGRFTISRDNAKNTLYLQMSSLKSEDTAMYYCASGDYWGQGSTLTVSS
VL: DVVMTQTPLSLPVSLGDQASISCRSSQSLVYSNGDTYLHWYLQKPGQSPKLLIYKVSNRFSGVPDRFSGSGSGTDFTLKISRVEAEDLGVYFCSQSTHVPWTFGGGTKLEIKR

- binding [1]: binds
- binding [6]: binds
B2: VK-R antibody (mC2 VK-R combined with chimeric C2 VH) (antibody, V domains shown)
VH: B1 VH
VL: DVVMTQTPLSLPVSLGDQASISCRSSQSLVYSNGDTYLHWYLQKPGQSPKLLIYRVSNRFSGVPDRFSGSGSGTDFTLKISRVEAEDLGVYFCSQSTHVPWTFGGGTKLEIK

- binding [7]: binds
- binding [3]: binds
B3: humanized antibody C2HuVH4/HuVK2 (antibody, human IgG4 S228P, kappa, V domains shown)
VH: EVQLVESGGGLVQPGGSLRLSCAASGFTFSSYGMSWVRQAPGKGLELVASINSNGGSTYYPDSVKGRFTISRDNAKNSLYLQMNSLRAEDTAVYYCASGDYWGQGTTVTVSS
VL: B1 VL with V2I, T7S, S14T, L15P, D17E, Q18P, K50Q, L88V, G105Q, L109V

- binding [1]: binds
- binding [6]: binds
B4: VK-S antibody (mC2 VK-S combined with chimeric C2 VH) (antibody, V domains shown)
VH: B1 VH
VL: B2 VL with R55K, N58S
